Taken from: PubChem BioAssay AID1259405 (NCATS, 2018)
Screen: 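Knock-downs that lift recombinant protein yield in hamster ovary cells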 (primary screen). System: Chinese hamster CHO-K1 ovary cells with stable secreted eGFP expression. Reagent: single siRNA against mouse genes, 0.8 pmol siRNA per well (2 µl of 400 nM stock). Time to read-out: 3 days. Detection: 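Per-well intracellular GFP measured by laser scanning cytometry, plus viability from ATP luminescence, each relative to plate median of non-targeting control wells, in %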. Reading the numbers: GFP, % of control: higher = more GFP per well, higher productivity; viability (ATP), % of control: higher = more viable cells (more ATP). Active means: 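a knock-down is called active if GFP reaches 120% or more of non-targeting control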.
Shown is a random part of about 50,000 reagents. In the full data, about 4,000 (8%) got an active call. 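Mouse siRNA library applied to hamster cells; one well for each siRNA.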 A number with no mark means an inactive call. The numbers tell different reagents against one gene apart.

| target gene | reagent no. | GFP, % of control | viability (ATP), % of control |
| --- | --- | --- | --- |
| Dnd1 | 1 | 50.9 | 59 |
| Dnd1 | 2 | 71.9 | 61.1 |
| Dnd1 | 3 | 81.1 | 72.3 |
| Ccdc69 | 1 | 79.7 | 82.2 |
| Ccdc69 | 2 | 87.9 | 80.9 |
| Ccdc69 | 3 | 80.6 | 100 |
| Zfp369 | 1 | 52.6 | 70 |
| Zfp369 | 2 | 67.4 | 77.3 |
| Zfp369 | 3 | 56.2 | 53.3 |
| Gpr21 | 1 | 122 (active) | 105 |
| Gpr21 | 2 | 109 | 102 |
| Gpr21 | 3 | 74.7 | 77.6 |
| Cldn11 | 1 | 55.3 | 60.2 |
| Cldn11 | 2 | 93.1 | 116 |
| Cldn11 | 3 | 98.9 | 123 |
| Eefsec | 1 | 93.9 | 91.6 |
| Eefsec | 2 | 73.9 | 72 |
| Eefsec | 3 | 49.8 | 70.2 |
| Tpsb2 | 1 | 64 | 71.7 |
| Tpsb2 | 2 | 76 | 73.8 |
| Tpsb2 | 3 | 89.3 | 77.9 |
| Sipa1l1 | 1 | 80.2 | 79.2 |
| Sipa1l1 | 2 | 120 (active) | 103 |
| Sipa1l1 | 3 | 79.6 | 80.6 |
| Man1c1 | 1 | 139 (active) | 104 |
| Man1c1 | 2 | 58.3 | 62 |
| Man1c1 | 3 | 61.4 | 91.7 |
| Crtac1 | 1 | 115 | 96.6 |
| Crtac1 | 2 | 48.7 | 49.1 |
| Apol9b | 1 | 60.2 | 72.4 |
| Apol9b | 2 | 23.9 | 34.8 |
| Apol9b | 3 | 89.2 | 98.4 |
| Nefh | 1 | 48.9 | 79.6 |
| Nefh | 2 | 67.8 | 35.6 |
| Nefh | 3 | 88.6 | 51.1 |
| Creg2 | 1 | 81.1 | 92.2 |
| Creg2 | 2 | 67.7 | 61.7 |
| Creg2 | 3 | 97.2 | 88 |
| Tmem60 | 1 | 93.5 | 102 |
| Tmem60 | 2 | 67.3 | 85.2 |
| Tmem60 | 3 | 163 (active) | 180 |
| Lnx1 | 1 | 84.5 | 74.9 |
| Lnx1 | 2 | 96.7 | 93 |
| Lnx1 | 3 | 150 (active) | 164 |
| Slit1 | 1 | 146 (active) | 64.4 |
| Slit1 | 2 | 101 | 89.3 |
| Slit1 | 3 | 107 | 73 |
| Bud23 | 1 | 77.5 | 93.6 |
| Bud23 | 2 | 60 | 70.9 |
| Bud23 | 3 | 77.3 | 95.1 |
| Khdrbs1 | 1 | 59.6 | 96.5 |
| Khdrbs1 | 2 | 68.8 | 61.7 |
| Khdrbs1 | 3 | 57.2 | 62 |
| Tcea3 | 1 | 22.1 | 24.6 |
| Tcea3 | 2 | 74.1 | 49.9 |
| Tcea3 | 3 | 76.8 | 72.1 |
| Il22ra1 | 1 | 107 | 111 |
| Il22ra1 | 2 | 159 (active) | 95.6 |
| Il22ra1 | 3 | 54.6 | 38.6 |
